Results on five molecules are retold here after publication PMC12467718.

These are yes or no findings as the source states them, for the method shown. Binding seen in cells or lysates may run through a third protein. Here binding means that the protein was enriched with, or labelled near, the bait; the list need not be complete. No binding means not detected with the bait.

The experiment deals with C-terminal domain of Gal-8, immobilized on Affi-Gel-10 beads (human). Nature of the experiment: affinity purification with mass spectrometry; 8 mL HL-60 membrane preparation with 3 mL Gal-8-beads or Gal-8C-beads (10 mg/mL, Affi-Gel-10), 1 h at 4 °C, PBS-1.5% Triton X-100; sucrose wash, 100 mM lactose elution; 75-250 kDa Coomassie bands, LC-MS/MS; only the target purified.

B1: leukosialin precursor [Homo sapiens] (protein, UniProt P16150 20-400)
chain: STTAVQTPTSGEPLVSTSEPLSSKMYTTSITSDPKADSTGDQTSALPPSTSINEGSPLWTSIGASTGSPLPEPTTYQEVSIKMSSVPQETPHATSHPAVPITANSLGSHTVTGGTITTNSPETSSRTSGAPVTTAASSLETSRGTSGPPLTMATVSLETSKGTSGPPVTMATDSLETSTGTTGPPVTMTTGSLEPSSGASGPQVSSVKLSTMMSPTTSTNASTVPFRNPDENSRGMLPVAVLVALLAVIVLVALLLLWRRRQKRRTGALVLSRGGKRNGVVDAWAGPAQVPEEGAVTVTVGGSGGDKGSGFPDGEGSSRRPTLTTFFGRRKSRQGSLAMEELKSGSGPSLKGEEEPLVASEDGAVDAPAPDEPEGGDGAAP
As for B1, the binding entry was “no binding”.

B2: neutral amino acid transporter B(0) isoform 1 [Homo sapiens] (protein, UniProt Q15758 1-541)
chain: MVADPPRDSKGLAAAEPTANGGLALASIEDQGAAAGGYCGSRDQVRRCLRANLLVLLTVVAVVAGVALGLGVSGAGGALALGPERLSAFVFPGELLLRLLRMIILPLVVCSLIGGAASLDPGALGRLGAWALLFFLVTTLLASALGVGLALALQPGAASAAINASVGAAGSAENAPSKEVLDSFLDLARNIFPSNLVSAAFRSYSTTYEERNITGTRVKVPVGQEVEGMNILGLVVFAIVFGVALRKLGPEGELLIRFFNSFNEATMVLVSWIMWYAPVGIMFLVAGKIVEMEDVGLLFARLGKYILCCLLGHAIHGLLVLPLIYFLFTRKNPYRFLWGIVTPLATAFGTSSSSATLPLMMKCVEENNGVAKHISRFILPIGATVNMDGAALFQCVAAVFIAQLSQQSLDFVKIITILVTATASSVGAAGIPAGGVLTLAIILEAVNLPVDHISLILAVDWLVDRSCTVLNVEGDALGAGLLQNYVDRTESRSTEPELIQVKSELPLDPLPVPTEEGNPLLKHYRGPAGDATVASEKESVM
For B2, the binding entry is reported as “binds”.

B3: cytochrome b-245 heavy chain [Homo sapiens] (protein, UniProt P04839 1-570)
chain: MGNWAVNEGLSIFVILVWLGLNVFLFVWYYRVYDIPPKFFYTRKLLGSALALARAPAACLNFNCMLILLPVCRNLLSFLRGSSACCSTRVRRQLDRNLTFHKMVAWMIALHSAIHTIAHLFNVEWCVNARVNNSDPYSVALSELGDRQNESYLNFARKRIKNPEGGLYLAVTLLAGITGVVITLCLILIITSSTKTIRRSYFEVFWYTHHLFVIFFIGLAIHGAERIVRGQTAESLAVHNITVCEQKISEWGKIKECPIPQFAGNPPMTWKWIVGPMFLYLCERLVRFWRSQQKVVITKVVTHPFKTIELQMKKKGFKMEVGQYIFVKCPKVSKLEWHPFTLTSAPEEDFFSIHIRIVGDWTEGLFNACGCDKQEFQDAWKLPKIAVDGPFGTASEDVFSYEVVMLVGAGIGVTPFASILKSVWYKYCNNATNLKLKKIYFYWLCRDTHAFEWFADLLQLLESQMQERNNAGFLSYNIYLTGWDESQANHFAVHHDEEKDVITGLKQKTLYGRPNWDNEFKTIASQHPNTRIGVFLCGPEALAETLSKQSISNSESGPRGVHFIFNKENF
With B3, the binding entry was “binds”.

B4: multidrug resistance-associated protein 4 isoform 1 [Homo sapiens] (protein, UniProt O15439 1-1325)
chain: MLPVYQEVKPNPLQDANLCSRVFFWWLNPLFKIGHKRRLEEDDMYSVLPEDRSQHLGEELQGFWDKEVLRAENDAQKPSLTRAIIKCYWKSYLVLGIFTLIEESAKVIQPIFLGKIINYFENYDPMDSVALNTAYAYATVLTFCTLILAILHHLYFYHVQCAGMRLRVAMCHMIYRKALRLSNMAMGKTTTGQIVNLLSNDVNKFDQVTVFLHFLWAGPLQAIAVTALLWMEIGISCLAGMAVLIILLPLQSCFGKLFSSLRSKTATFTDARIRTMNEVITGIRIIKMYAWEKSFSNLITNLRKKEISKILRSSCLRGMNLASFFSASKIIVFVTFTTYVLLGSVITASRVFVAVTLYGAVRLTVTLFFPSAIERVSEAIVSIRRIQTFLLLDEISQRNRQLPSDGKKMVHVQDFTAFWDKASETPTLQGLSFTVRPGELLAVVGPVGAGKSSLLSAVLGELAPSHGLVSVHGRIAYVSQQPWVFSGTLRSNILFGKKYEKERYEKVIKACALKKDLQLLEDGDLTVIGDRGTTLSGGQKARVNLARAVYQDADIYLLDDPLSAVDAEVSRHLFELCICQILHEKITILVTHQLQYLKAASQILILKDGKMVQKGTYTEFLKSGIDFGSLLKKDNEESEQPPVPGTPTLRNRTFSESSVWSQQSSRPSLKDGALESQDTENVPVTLSEENRSEGKVGFQAYKNYFRAGAHWIVFIFLILLNTAAQVAYVLQDWWLSYWANKQSMLNVTVNGGGNVTEKLDLNWYLGIYSGLTVATVLFGIARSLLVFYVLVNSSQTLHNKMFESILKAPVLFFDRNPIGRILNRFSKDIGHLDDLLPLTFLDFIQTLLQVVGVVSVAVAVIPWIAIPLVPLGIIFIFLRRYFLETSRDVKRLESTTRSPVFSHLSSSLQGLWTIRAYKAEERCQELFDAHQDLHSEAWFLFLTTSRWFAVRLDAICAMFVIIVAFGSLILAKTLDAGQVGLALSYALTLMGMFQWCVRQSAEVENMMISVERVIEYTDLEKEAPWEYQKRPPPAWPHEGVIIFDNVNFMYSPGGPLVLKHLTALIKSQEKVGIVGRTGAGKSSLISALFRLSEPEGKIWIDKILTTEIGLHDLRKKMSIIPQEPVLFTGTMRKNLDPFNEHTDEELWNALQEVQLKETIEDLPGKMDTELAESGSNFSVGQRQLVCLARAILRKNQILIIDEATANVDPRTDELIQKKIREKFAHCTVLTIAHRLNTIIDSDKIMVLDSGRLKEYDEPYVLLQNKESLFYKMVQQLGKAEAAALTETAKQVYFKRNYPHIGHTDHMVTNTSNGQPSTLTIFETAL
As for B4, the binding entry is reported as “no binding”.

B5: carboxypeptidase D isoform 1 precursor [Homo sapiens] (enzyme, UniProt O75976 32-1380)
chain: AHIKKAEATTTTTSAGAEAAEGQFDRYYHEEELESALREAAAAGLPGLARLFSIGRSVEGRPLWVLRLTAGLGSLIPEGDAGPDAAGPDAAGPLLPGRPQVKLVGNMHGDETVSRQVLIYLARELAAGYRRGDPRLVRLLNTTDVYLLPSLNPDGFERAREGDCGFGDGGPSGASGRDNSRGRDLNRSFPDQFSTGEPPALDEVPEVRALIEWIRRNKFVLSGNLHGGSVVASYPFDDSPEHKATGIYSKTSDDEVFKYLAKAYASNHPIMKTGEPHCPGDEDETFKDGITNGAHWYDVEGGMQDYNYVWANCFEITLELSCCKYPPASQLRQEWENNRESLITLIEKVHIGVKGFVKDSITGSGLENATISVAGINHNITTGRFGDFYRLLVPGTYNLTVVLTGYMPLTVTNVVVKEGPATEVDFSLRPTVTSVIPDTTEAVSTASTVAIPNILSGTSSSYQPIQPKDFHHHHFPDMEIFLRRFANEYPNITRLYSLGKSVESRELYVMEISDNPGVHEPGEPEFKYIGNMHGNEVVGRELLLNLIEYLCKNFGTDPEVTDLVHNTRIHLMPSMNPDGYEKSQEGDSISVIGRNNSNNFDLNRNFPDQFVQITDPTQPETIAVMSWMKSYPFVLSANLHGGSLVVNYPFDDDEQGLATYSKSPDDAVFQQIALSYSKENSQMFQGRPCKNMYPNEYFPHGITNGASWYNVPGGMQDWNYLQTNCFEVTIELGCVKYPLEKELPNFWEQNRRSLIQFMKQVHQGVRGFVLDATDGRGILNATISVAEINHPVTTYKTGDYWRLLVPGTYKITASARGYNPVTKNVTVKSEGAIQVNFTLVRSSTDSNNESKKGKGASSSTNDASDPTTKEFETLIKDLSAENGLESLMLRSSSNLALALYRYHSYKDLSEFLRGLVMNYPHITNLTNLGQSTEYRHIWSLEISNKPNVSEPEEPKIRFVAGIHGNAPVGTELLLALAEFLCLNYKKNPAVTQLVDRTRIVIVPSLNPDGRERAQEKDCTSKIGQTNARGKDLDTDFTNNASQPETKAIIENLIQKQDFSLSVALDGGSMLVTYPYDKPVQTVENKETLKHLASLYANNHPSMHMGQPSCPNKSDENIPGGVMRGAEWHSHLGSMKDYSVTYGHCPEITVYTSCCYFPSAARLPSLWADNKRSLLSMLVEVHKGVHGFVKDKTGKPISKAVIVLNEGIKVQTKEGGYFHVLLAPGVHNIIAIADGYQQQHSQVFVHHDAASSVVIVFDTDNRIFGLPRELVVTVSGATMSALILTACIIWCICSIKSNRHKDGFHRLRQHHDEYEDEIRMMSTGSKKSLLSHEFQDETDTEEETLYSSKH
Consider B5, for which the binding entry is reported as “binds”.
